Consider 6 molecules from PMC2614481.

To fix the notation:
T1: Sp_Set3p (S. pombe) (UniProt Q10362)
T1 sequence: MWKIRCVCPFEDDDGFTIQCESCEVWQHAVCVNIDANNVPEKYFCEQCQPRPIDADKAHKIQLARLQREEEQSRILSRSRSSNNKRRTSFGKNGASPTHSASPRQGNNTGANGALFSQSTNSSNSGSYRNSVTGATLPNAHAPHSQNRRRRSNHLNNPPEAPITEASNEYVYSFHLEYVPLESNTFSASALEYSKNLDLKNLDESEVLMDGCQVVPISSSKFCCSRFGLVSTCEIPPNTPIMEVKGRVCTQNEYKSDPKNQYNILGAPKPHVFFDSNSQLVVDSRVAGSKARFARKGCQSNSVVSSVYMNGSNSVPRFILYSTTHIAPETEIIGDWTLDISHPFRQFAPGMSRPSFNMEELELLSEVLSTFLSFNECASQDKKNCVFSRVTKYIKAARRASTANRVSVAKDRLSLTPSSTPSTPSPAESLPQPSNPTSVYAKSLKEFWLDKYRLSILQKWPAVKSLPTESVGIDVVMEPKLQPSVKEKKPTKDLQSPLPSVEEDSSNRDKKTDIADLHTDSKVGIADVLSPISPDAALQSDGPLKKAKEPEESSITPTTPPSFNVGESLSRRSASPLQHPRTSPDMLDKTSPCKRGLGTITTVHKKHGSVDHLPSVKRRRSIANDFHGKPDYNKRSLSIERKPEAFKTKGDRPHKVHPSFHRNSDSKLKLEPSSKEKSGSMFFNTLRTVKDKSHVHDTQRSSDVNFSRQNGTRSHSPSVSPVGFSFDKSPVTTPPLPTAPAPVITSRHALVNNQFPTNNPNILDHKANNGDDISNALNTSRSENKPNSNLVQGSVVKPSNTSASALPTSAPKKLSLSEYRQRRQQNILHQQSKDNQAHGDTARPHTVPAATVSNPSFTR

T2: Sc_Tos4p (S. cerevisiae) (UniProt Q06266)
T2 sequence: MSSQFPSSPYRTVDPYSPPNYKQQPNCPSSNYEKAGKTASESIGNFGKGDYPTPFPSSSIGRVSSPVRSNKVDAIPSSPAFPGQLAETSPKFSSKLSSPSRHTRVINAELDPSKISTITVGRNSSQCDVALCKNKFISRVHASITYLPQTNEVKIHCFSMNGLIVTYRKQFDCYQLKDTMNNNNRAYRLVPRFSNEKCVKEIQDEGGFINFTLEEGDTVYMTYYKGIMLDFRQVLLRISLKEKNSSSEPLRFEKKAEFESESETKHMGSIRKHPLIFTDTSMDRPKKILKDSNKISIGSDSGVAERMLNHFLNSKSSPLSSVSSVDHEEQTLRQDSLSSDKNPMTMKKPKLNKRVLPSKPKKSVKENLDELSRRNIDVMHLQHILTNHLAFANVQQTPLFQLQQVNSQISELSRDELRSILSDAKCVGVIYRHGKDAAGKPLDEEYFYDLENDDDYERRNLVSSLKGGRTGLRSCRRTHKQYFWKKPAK

B1: Sp_Hda1 (protein, UniProt O13298 1-434)
chain: MDTPETSTPYEQVEKGSFFSFRPQKKRVTYHLDEQVGNYHYGDKHPMKPHRITITNHLVMGYGLHNKMSVFSPRMATFGEMSEFHREDYLDFLKRVTPDNAEQFADKFQQFNIGDDCPVFDGTYEFSQRSAGASLDASRKLVQGQTDIAINWSGGLHHAKRGEASGFCYVNDIVLAILNMLRFFPRVLYIDIDIHHGDGVQQAFYESDRVLTVSFHKYNGDFFPATGNFDENGVKGGKYFALNVPLEDGIGDEQYTSLFKSIIEPTINTFQPSAIVLQCGADSLGYDRLGVFNLSIHAHGECVRFTRSFNIPMLVVGGGGYTLRNVARAWCYETSICVNEQIPSELPRETLYYEFFAPDYTLHPRLTTKIENKNTPKALEDLRIRALEQLRYLGGAPSVQMQQIPPDLTGHLEEEDERLNDEYLDKAVDVRVRG
B2: Sc_Set3 (protein, UniProt P36124 1-751)
chain: MSVPNSKEQSLLDDASTLLLFSKGKKRAEEASKIGSKTDTIEHDESHEREKKGAIEMAAAALATASTVSLPLKKATEQSAAEAATSTAAKEETENQPQKQPQWPVPDSYIVDPDAGIITCICDLNDDDGFTIQCDHCNRWQHAICYGIKDIGMAPDDYLCNSCDPREVDINLARKIQQERINVKTVEPSSSNNSASNKNNGRDRASSTTISDVGDSFSTDQDNTNHRDKRRKRNPSNNSIDSKNESASVNSSDGLTSMPKKKEHFLSAKDAYGAIYLPLKDNVFKSDLIEPFLNKHMDDNWVIQYPHKTFKSVSIEVKPYADIAYSRTYPGFTKLGVYLKKDCIKGDFIQEILGELDFYKNYLTDPRNHYRIWGTAKRRVIFHSHWPIYIDARLSGNSTRYLRRSCQPNVELVTIKLQDTDNRNDKSSGRKSSRIKFVLRALRDISEDEELYIKWQWDSKHPILKLIKGMTIDSLDDLERYGLINSVETILSNGECGCGNNSKDCYLLKVKRYAQSLYKSVKSRGKMNNRYKLNEILNQYNCKKRREPPILHRLEEKAQNTIERAPILLNNFYRQKFLNRNNGPKIPQKNTIDSTNNPDDIAKPFKFALFAQHSSNISVPKKNETSEKPLIITKSTDYDESHITNIEELPIPVLLPINKTSRQTANDVEESQSKNEHKLSRTPSLSNFNKELSKEAQHSQAKTKEIMTEASVNSRRESTPESIMHLSDFSSSQLHSKKKLSFADYRKKLLK
B3: Sc_Sif2 (protein, UniProt P38262 1-535)
chain: MSITSEELNYLIWRYCQEMGHEVSALALQDETRVLEFDEKYKEHIPLGTLVNLVQRGILYTESELMVDSKGDISALNEHHLSEDFNLVQALQIDKEKFPEISSEGRFTLETNSESNKAGEDGASTVERETQEDDTNSIDSSDDLDGFVKILKEIVKLDNIVSSTWNPLDESILAYGEKNSVARLARIVETDQEGKKYWKLTIIAELRHPFALSASSGKTTNQVTCLAWSHDGNSIVTGVENGELRLWNKTGALLNVLNFHRAPIVSVKWNKDGTHIISMDVENVTILWNVISGTVMQHFELKETGGSSINAENHSGDGSLGVDVEWVDDDKFVIPGPKGAIFVYQITEKTPTGKLIGHHGPISVLEFNDTNKLLLSASDDGTLRIWHGGNGNSQNCFYGHSQSIVSASWVGDDKVISCSMDGSVRLWSLKQNTLLALSIVDGVPIFAGRISQDGQKYAVAFMDGQVNVYDLKKLNSKSRSLYGNRDGILNPLPIPLYASYQSSQDNDYIFDLSWNCAGNKISVAYSLQEGSVVAI
B4: Sc_Hos2 (protein, UniProt P53096 1-452)
chain: MSGTFSYDVKTKENEPLFEFNSAYSPRVSYHFNSKVSHYHYGVKHPMKPFRLMLTDHLVSSYGLHKIMDLYETRSATRDELLQFHSEDYVNFLSKVSPENANKLPRGTLENFNIGDDCPIFQNLYDYTTLYTGASLDATRKLINNQSDIAINWSGGLHHAKKNSPSGFCYVNDIVLSILNLLRYHPRILYIDIDLHHGDGVQEAFYTTDRVFTLSFHKYNGEFFPGTGDLTEIGCDKGKHFALNVPLEDGIDDDSYINLFKSIVDPLIMTFKPTLIVQQCGADSLGHDRLGCFNLNIKAHGECVKFVKSFGLPMLVVGGGGYTPRNVSRLWTYETGILNDVLLPEDIPEDIPFRDSFGPDYSLYPMLDDLYENKNSKKLLEDIRIRCLENIRYLQGAPSVRMDAECIPTQDISALTEEEDKIIQEMNEETEADSSNRLEEMEKENSGLIAFS
B5: Sc_Hos4p (protein, UniProt P40480 1-1083)
chain: MNETTTKQPLKKRSLSSYLSNVSTRREELEKISKQETSEEEDTAGKHEQRETLSEEVSDKFPENVASFRSQTTSVHQATQNNLNAKESEDLAHKNDASSHEGEVNGDSRPDDVPETNEKISQAIRAKISSSSSSPNVRNVDIQNHQPFSRDQLRAMLKEPKRKTVDDFIEEEGLGAVEEEDLSDEVLEKNTTEPENVEKDIEYSDSDKDTDDVGSDDPTAPNSPIKLGRRKLVRGDQLDATTSSMFNNESDSELSDIDDSKNIALSSSLFRGGSSPVKETNNNLSNMNSSPAQNPKRGSVSRSNDSNKSSHIAVSKRPKQKKGIYRDSGGRTRLQIACDKGKYDVVKKMIEEGGYDINDQDNAGNTALHEAALQGHIEIVELLIENGADVNIKSIEMFGDTPLIDASANGHLDVVKYLLKNGADPTIRNAKGLTAFESVDDESEFDDEEDQKILREIKKRLSIAAKKWTNRAGIHNDKSKNGNNAHTIDQPPFDNTTKAKNEKAADSPSMASNIDEKAPEEEFYWTDVTSRAGKEKLFKASKEGHLPYVGTYVENGGKIDLRSFFESVKCGHEDITSIFLAFGFPVNQTSRDNKTSALMVAVGRGHLGTVKLLLEAGADPTKRDKKGRTALYYAKNSIMGITNSEEIQLIENAINNYLKKHSEDNNDDDDDDDNNNETYKHEKKREKTQSPILASRRSATPRIEDEEDDTRMLNLADDDFNNDRDVKESTTSDSRKRLDDNENVGTQYSLDWKKRKTNALQDEEKLKSISPLSMEPHSPKKAKSVEISKIHEETAAEREARLKEEEEYRKKRLEKKRKKEQELLQKLAEDEKKRIEEQEKQKVLEMERLEKATLEKARKMEREKEMEEISYRRAVRDLYPLGLKIINFNDKLDYKRFLPLYYFVDEKNDKFVLDLQVMILLKDIDLLSKDNQPTSEKIPVDPSHLTPLWNMLKFIFLYGGSYDDKKNNMENKRYVVNFDGVDLDTKIGYELLEYKKFVSLPMAWIKWDNVVIENHAKRKEIEGNMIQISINEFARWRNDKLNKAQQPTRKQRSLKIPRELPVKFQHRMSISSVLQQTSKEPFW
B6: SNT1 (S. cerevisiae) (protein, UniProt P25357 1-1226)
chain: MGYPPPTRRLGDKKRYHYSNNPNRRHPSAVYSKNSFPKSSNNGFVSSPTADNSTNPSVTPSTASVPLPTAAPGSTFGIEAPRPSRYDPSSVSRPSSSSYSSTRKIGSRYNPDVERSSSTTSSTPESMNTSTITHTNTDIGNSRYSRKTMSRYNPQSTSSTNVTHFPSALSNAPPFYVANGSSRRPRSMDDYSPDVTNKLETNNVSSVNNNSPHSYYSRSNKWRSIGTPSRPPFDNHVGNMTTTSNTNSIHQREPFWKANSTTILKSTHSQSSPSLHTKKFHDANKLDKPEASVKVETPSKDETKAISYHDNNFPPRKSVSKPNAPLEPDNIKVGEEDALGKKEVHKSGREIAKEHPTPVKMKEHDELEARAKKVSKINIDGKQDEIWTTAKTVASAVEVSKESQKELTRSVERKESPEIRDYERAYDPKALKTDVTKLTVDNDNKSYEEPLEKVEGCIFPLPKAETRLWELKNQKRNKIISEQKYLLKKAIRNFSEYPFYAQNKLIHQQATGLILTKIISKIKKEEHLKKINLKHDYFDLQKKYEKECEILTKLSENLRKEEIENKRKEHELMEQKRREEGIETEKEKSLRHPSSSSSSRRRNRADFVDDAEMENVLLQIDPNYKHYQAAATIPPLILDPIRKHSYKFCDVNNLVTDKKLWASRILKDASDNFTDHEHSLFLEGYLIHPKKFGKISHYMGGLRSPEECVLHYYRTKKTVNYKQLLIDKNKKRKMSAAAKRRKRKERSNDEEVEVDESKEESTNTIEKEEKSENNAEENVQPVLVQGSEVKGDPLGTPEKVENMIEQRGEEFAGELENAERVNDLKRAHDEVGEESNKSSVIETNNGVQIMDPKGAVQNGYYPEETKELDFSLENALQRKKHKSAPEHKTSYWSVRESQLFPELLKEFGSQWSLISEKLGTKSTTMVRNYYQRNAARNGWKLLVDETDLKRDGTSSESVQQSQILIQPERPNINAYSNIPPQQRPALGYFVGQPTHGHNTSISSIDGSIRPFGPDFHRDTFSKISAPLTTLPPPRLPSIQFPRSEMAEPTVTDLRNRPLDHIDTLADAASSVTNNQNFSNERNAIDIGRKSTTISNLLNNSDRSMKSSFQSASRHEAQLEDTPSMNNIVVQEIKPNITTPRSSSISALLNPVNGNGQSNPDGRPLLPFQHAISQGTPTFPLPAPRTSPISRAPPKFNFSNDPLAALAAVASAPDAMSSFLSKKENNN

These are yes or no findings as the source states them, for the method shown. In cells and extracts the contact can be indirect. A yes stands for co-enrichment or nearness to the bait. Other partners may have been found.

The target in the first assay is T1, Sp_Set3p (S. pombe). The assay can be described thus: affinity purification with mass spectrometry; TAP of baits TAP-tagged at their genes from S. pombe extracts; eluates on 6-18% gels, Coomassie, bands and slices identified by MALDI peptide mapping and LC-MS/MS; common background removed, A-index cut-off 1.75.
B1: the binding entry was “binds”.

The next assay deals with T2, Sc_Tos4p (S. cerevisiae). The assay can be described thus: affinity purification with mass spectrometry; TAP of baits TAP-tagged at their genes from S. cerevisiae extracts; eluates on 6-18% gels, Coomassie, bands and slices identified by MALDI peptide mapping and LC-MS/MS; common background removed, A-index cut-off 1.75.
For the molecule B2, the binding result was “binds”. With B3, the binding entry is listed as “binds”. Consider B4, for which the binding result is “binds”. As to B5, the binding result was “binds”. The same measure, in the same setting: next, B6: “binds”.
